We go through 94 sequences from the supplement of paper PMC3334620.

In all, about 33,000 sequences were measured (“E-score (-0.5 to 0.5)”: median about -0.015, highest 2% from about 0.3 on). Some of the results follow.

The assay addresses T1, Abf1 (UniProt P14164).
T1 sequence: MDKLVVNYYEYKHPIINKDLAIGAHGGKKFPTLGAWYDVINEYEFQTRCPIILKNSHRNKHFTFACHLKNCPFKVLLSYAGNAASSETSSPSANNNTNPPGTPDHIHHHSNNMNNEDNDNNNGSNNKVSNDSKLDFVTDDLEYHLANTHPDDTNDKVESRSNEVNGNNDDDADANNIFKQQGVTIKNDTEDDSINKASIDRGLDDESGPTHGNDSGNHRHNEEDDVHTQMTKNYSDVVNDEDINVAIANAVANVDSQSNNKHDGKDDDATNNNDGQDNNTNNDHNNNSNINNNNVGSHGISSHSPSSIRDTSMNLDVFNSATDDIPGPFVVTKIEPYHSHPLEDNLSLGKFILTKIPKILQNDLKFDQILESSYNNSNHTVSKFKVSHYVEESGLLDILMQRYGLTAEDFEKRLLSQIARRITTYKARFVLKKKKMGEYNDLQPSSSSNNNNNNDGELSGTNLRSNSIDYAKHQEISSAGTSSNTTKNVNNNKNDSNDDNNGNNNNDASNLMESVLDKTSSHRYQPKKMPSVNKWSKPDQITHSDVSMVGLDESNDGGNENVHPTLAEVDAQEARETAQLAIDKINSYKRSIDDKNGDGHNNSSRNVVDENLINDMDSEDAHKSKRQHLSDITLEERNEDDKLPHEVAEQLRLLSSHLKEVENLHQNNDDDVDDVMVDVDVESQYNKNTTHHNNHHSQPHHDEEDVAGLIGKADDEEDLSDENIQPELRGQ
The experiment in a line: PBM E-score (8-mer binding enrichment) (E-score (-0.5 to 0.5)); higher = stronger / more preferred TF binding. Particulars: protein concentration: 200 nM; construct: GST-full length. How it is done: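 Universal 'all 10-mer' protein binding microarrays (Agilent AMADID 015681) probed with GST-tagged S. cerevisiae TFs (full-length or DBD) made by in vitro transcription/translation (PURExpress), about 100-200 nM. Bound TF was detected with fluorescent anti-GST. Each ungapped 8-mer (which stands for itself and its reverse complement) is scored by the PBM enrichment score (E-score), a modified Wilcoxon-Mann-Whitney statistic from -0.5 to +0.5, computed with the Universal PBM Analysis Suite. Scale: above 0.35 generally sequence-specific binding.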
For the sequence GCTTTTGA, the “PBM E-score” value is -0.13.

Turning to CCATCGGC, the “PBM E-score” value is -0.142.

As for CTCTTCAC, the “PBM E-score” value came out at 0.0515.

For AATAATCA, the “PBM E-score” value was determined as 0.227.

Turning to CAATTAGA, the “PBM E-score” value was -0.121.

For the sequence CACGTGAC, the “PBM E-score” value was 0.22.

For the sequence AGAGAACT, the “PBM E-score” value was -0.0311.

Turning to ACTTGGTG, the “PBM E-score” value was -0.141.

ACAGCGTG: the “PBM E-score” value was 0.0194.

Take CCGGTGTC: the “PBM E-score” value is -0.262.

Take GACTTCAA: the “PBM E-score” value is -0.124.

In the case of CAAGTCGA, the “PBM E-score” value was -0.106.

AGCCCGAA: the “PBM E-score” value was -0.0782.

As to CGCACGAA, the “PBM E-score” value came out at 0.321.

Consider ACTCGGAT, for which the “PBM E-score” value worked out at 0.0437.

Turning to AAGAGCAG, the “PBM E-score” value is -0.216.

In the case of GGTTTATA, the “PBM E-score” value is 0.105.

On to GATCGTCA, for which the “PBM E-score” value worked out at 0.277.

CCCCGCGG: the “PBM E-score” value is -0.255.

With AGGACGCA, the “PBM E-score” value was -0.181.

As for GGTCGCTA, the “PBM E-score” value stood at 0.0741.

In the case of ACCACTGC, the “PBM E-score” value was -0.127.

Consider TCGCTCCA, for which the “PBM E-score” value came to 0.00797.

For the sequence GCACAACA, the “PBM E-score” value is -0.0984.

On to AAGCTATG, for which the “PBM E-score” value is -0.163.

For GTCTCTCA, the “PBM E-score” value was 0.0465.

As to ATAATACC, the “PBM E-score” value worked out at 0.189.

Take CCTGGAAC: the “PBM E-score” value is -0.0203.

As for GGGTGCAC, the “PBM E-score” value was -0.0187.

For CCAGATCA, the “PBM E-score” value came to 0.218.

Turning to CGTCCGCC, the “PBM E-score” value was -0.0516.

In the case of GATGCGGA, the “PBM E-score” value was -0.0896.

Regarding ATCGTCGA, the “PBM E-score” value turned out to be 0.289.

For the sequence GCTAGAAC, the “PBM E-score” value was -0.063.

As to CCTGGCCA, the “PBM E-score” value is -0.161.

With AGGTCAAC, the “PBM E-score” value was -0.0991.

On to GGTAATGA, for which the “PBM E-score” value stood at 0.17.

As for AAGGATGG, the “PBM E-score” value was -0.0912.

As for GGGCTGCA, the “PBM E-score” value was -0.191.

For GGCTGTAC, the “PBM E-score” value amounted to 0.00065.

In the case of ATCGACCC, the “PBM E-score” value was -0.0929.

On to AAATGTTA, for which the “PBM E-score” value turned out to be 0.0905.

For CAAATTAG, the “PBM E-score” value was 0.171.

Turning to TAGTCGCA, the “PBM E-score” value was -0.0737.

As for AAGAGGGC, the “PBM E-score” value was 0.0275.

Turning to ACTGTCCC, the “PBM E-score” value is -0.126.

As for CGAATGCG, the “PBM E-score” value amounted to 0.103.

Turning to GCCAAAAC, the “PBM E-score” value is -0.156.

In the case of CACACCCG, the “PBM E-score” value is -0.0662.

On to TAATAAAA, for which the “PBM E-score” value came to 0.188.

As for CTCAGCCA, the “PBM E-score” value was -0.0785.

Turning to AACGCTAT, the “PBM E-score” value is 0.0722.

Consider ACGATCCT, for which the “PBM E-score” value is 0.165.

Take CTGATTTC: the “PBM E-score” value stood at 0.129.

CAGGGCCA: the “PBM E-score” value is -0.227.

Regarding CTCATTTA, the “PBM E-score” value was found to be 0.0543.

On to CCAGGAAC, for which the “PBM E-score” value is -0.22.

For ATGCGGGG, the “PBM E-score” value was -0.054.

For the sequence CAATATTC, the “PBM E-score” value is -0.0413.

With AACGGATT, the “PBM E-score” value amounted to 0.236.

For the sequence AGGTCCAA, the “PBM E-score” value was -0.193.

With CAGGATAA, the “PBM E-score” value is -0.0165.

As for AGCCAGAA, the “PBM E-score” value is -0.0335.

For CCTCGGAG, the “PBM E-score” value is -0.229.

Consider GCAATGGC, for which the “PBM E-score” value was -0.291.

Turning to TCAAGGCA, the “PBM E-score” value was -0.264.

On to AACTGAAG, for which the “PBM E-score” value is -0.0872.

Turning to AGACAGTC, the “PBM E-score” value was -0.226.

For TACTGTGA, the “PBM E-score” value is -0.0129.

In the case of ACTGGGCG, the “PBM E-score” value was -0.177.

For ACGGTGCA, the “PBM E-score” value amounted to 0.159.

For the sequence CTCGGGAC, the “PBM E-score” value is -0.163.

As for CAAGTGCC, the “PBM E-score” value is -0.336.

Consider GGGACACC, for which the “PBM E-score” value was -0.126.

As for ACGTTGTA, the “PBM E-score” value turned out to be 0.14.

Take AGCAATCC: the “PBM E-score” value was -0.0511.

Consider TACAAAGA, for which the “PBM E-score” value was determined as 0.234.

CCGGACCG: the “PBM E-score” value was -0.0652.

With ACCGATAG, the “PBM E-score” value was -0.0276.

CATCAGAG: the “PBM E-score” value amounted to 0.111.

In the case of CCGGCGGA, the “PBM E-score” value was -0.0642.

Turning to GCTTGAAC, the “PBM E-score” value was found to be 0.19.

AGTGGCTA: the “PBM E-score” value is -0.0332.

ACGAACAC: the “PBM E-score” value was found to be 0.245.

With TGGAAACA, the “PBM E-score” value was found to be 0.015.

In the case of GAGATTCA, the “PBM E-score” value was -0.0442.

In the case of GTAATCGA, the “PBM E-score” value came out at 0.184.

Consider CCTAAAGA, for which the “PBM E-score” value is -0.188.

For ATGTAAGC, the “PBM E-score” value was determined as 0.00043.

Regarding TATTATCA, the “PBM E-score” value stood at 0.34.

On to CAATGACG, for which the “PBM E-score” value was 0.156.

Regarding AGGCCTTA, the “PBM E-score” value is -0.137.

On to CTACGTAG, for which the “PBM E-score” value came to 0.12.

As to AAGCGTCT, the “PBM E-score” value was -0.218.
